Experimental data taken from PMC6356782.
No constants are given. Whether binding was seen depends on the method and setting. In cells and extracts the contact can be indirect. Some binding calls cover weakened binding; strength is not graded here. Blank lines part the entries; values can stand above or below the molecule they belong to.

Protein sequences, listed by entry. Tags and fused reporters are not part of them.
UniProt O60674: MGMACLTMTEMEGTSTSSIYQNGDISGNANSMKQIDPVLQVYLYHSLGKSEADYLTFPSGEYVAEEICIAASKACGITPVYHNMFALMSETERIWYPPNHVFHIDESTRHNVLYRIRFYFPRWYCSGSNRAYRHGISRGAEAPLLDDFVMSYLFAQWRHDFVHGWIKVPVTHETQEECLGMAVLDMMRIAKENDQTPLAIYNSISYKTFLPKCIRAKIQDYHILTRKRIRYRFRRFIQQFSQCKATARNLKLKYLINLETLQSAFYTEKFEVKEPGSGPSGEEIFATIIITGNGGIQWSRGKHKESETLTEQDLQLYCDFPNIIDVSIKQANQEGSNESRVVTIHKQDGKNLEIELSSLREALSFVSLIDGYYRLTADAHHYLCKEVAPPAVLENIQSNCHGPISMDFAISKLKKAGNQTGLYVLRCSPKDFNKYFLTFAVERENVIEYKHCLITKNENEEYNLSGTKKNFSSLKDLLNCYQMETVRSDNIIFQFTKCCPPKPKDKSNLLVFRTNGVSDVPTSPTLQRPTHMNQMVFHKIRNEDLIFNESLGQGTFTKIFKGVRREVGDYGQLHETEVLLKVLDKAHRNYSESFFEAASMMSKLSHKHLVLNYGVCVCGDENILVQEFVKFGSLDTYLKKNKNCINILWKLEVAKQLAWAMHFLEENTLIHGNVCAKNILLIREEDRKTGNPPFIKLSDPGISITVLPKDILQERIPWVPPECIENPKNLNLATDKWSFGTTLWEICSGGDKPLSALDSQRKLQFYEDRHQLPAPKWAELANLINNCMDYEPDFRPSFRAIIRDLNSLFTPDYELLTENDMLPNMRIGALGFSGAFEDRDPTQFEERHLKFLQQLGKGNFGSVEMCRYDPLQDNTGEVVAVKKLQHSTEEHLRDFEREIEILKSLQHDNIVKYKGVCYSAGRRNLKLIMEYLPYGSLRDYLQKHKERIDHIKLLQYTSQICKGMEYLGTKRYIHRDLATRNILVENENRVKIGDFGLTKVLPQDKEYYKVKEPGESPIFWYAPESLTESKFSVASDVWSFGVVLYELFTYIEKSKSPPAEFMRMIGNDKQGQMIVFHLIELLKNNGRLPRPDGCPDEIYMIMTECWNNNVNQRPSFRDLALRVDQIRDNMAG
UniProt O95751: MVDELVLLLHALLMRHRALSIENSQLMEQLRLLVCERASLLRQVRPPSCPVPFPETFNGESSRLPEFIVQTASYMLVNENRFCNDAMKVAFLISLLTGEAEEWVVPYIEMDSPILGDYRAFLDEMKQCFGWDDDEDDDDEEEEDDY

Key:
[1] = molecular target: phospho-JAK2 (pJAK2) (human (endogenous in A549)) (UniProt O60674); assay: co-IP; endogenous proteins; IL-6-stimulated (100 ng/mL) A549 and A549-shCtrl-D10 cells; NP-40 lysis buffer with MG132 and ubiquitin aldehyde; extracts precleared with IgG, immunoprecipitated with antibodies against pJAK2, LDOC1 or LNX1; immunoblot
[2] = molecular target: Leucine Zipper Down-Regulated In Cancer 1 (LDOC1) (human (endogenous in A549)) (UniProt O95751); assay: as above

binding [1]: binds
Molecule: Leucine Zipper Down-Regulated In Cancer 1 (LDOC1) (from UniProt O95751 1-146)

binding [2]: binds
B1: Ligand Of Numb-Protein X 1 (LNX1), E3 ubiquitin-protein ligase (enzyme, UniProt Q8TBB1 1-728)
chain: MNQPESANDPEPLCAVCGQAHSLEENHFYSYPEEVDDDLICHICLQALLDPLDTPCGHTYCTLCLTNFLVEKDFCPMDRKPLVLQHCKKSSILVNKLLNKLLVTCPFREHCTQVLQRCDLEHHFQTSCKGASHYGLTKDRKRRSQDGCPDGCASLTATAPSPEVSAAATISLMTDEPGLDNPAYVSSAEDGQPAISPVDSGRSNRTRARPFERSTIRSRSFKKINRALSVLRRTKSGSAVANHADQGRENSENTTAPEVFPRLYHLIPDGEITSIKINRVDPSESLSIRLVGGSETPLVHIIIQHIYRDGVIARDGRLLPGDIILKVNGMDISNVPHNYAVRLLRQPCQVLWLTVMREQKFRSRNNGQAPDAYRPRDDSFHVILNKSSPEEQLGIKLVRKVDEPGVFIFNVLDGGVAYRHGQLEENDRVLAINGHDLRYGSPESAAHLIQASERRVHLVVSRQVRQRSPDIFQEAGWNSNGSWSPGPGERSNTPKPLHPTITCHEKVVNIQKDPGESLGMTVAGGASHREWDLPIYVISVEPGGVISRDGRIKTGDILLNVDGVELTEVSRSEAVALLKRTSSSIVLKALEVKEYEPQEDCSSPAALDSNHNMAPPSDWSPSWVMWLELPRCLYNCKDIVLRRNTAGSLGFCIVGGYEEYNGNKPFFIKSIVEGTPAYNDGRIRCGDILLAVNGRSTSGMIHACLARLLKELKGRITLTIVSWPGTFL
